These are yes or no findings as the source states them, for the method shown. Binding seen in cells or lysates may run through a third protein. Some binding calls cover weakened binding; strength is not graded here.
Legend:
[1] = molecular target: FLAG-tagged hnRNPUL1 ΔWA (Walker A motif mutant) (human) (UniProt Q9BUJ2); experiment: co-IP
[2] = molecular target: FLAG-tagged hnRNPUL1 WT (full length) (human) (UniProt Q9BUJ2); experiment: co-IP

Chains of the proteins cited; added tags and fusions are not shown. Lines headed by an entry give the natural chain unless they say otherwise; changes in a name come on top. A line that says so, or that is headed by a name, gives the form on record, which may keep a tag or linker.
UniProt Q9BUJ2: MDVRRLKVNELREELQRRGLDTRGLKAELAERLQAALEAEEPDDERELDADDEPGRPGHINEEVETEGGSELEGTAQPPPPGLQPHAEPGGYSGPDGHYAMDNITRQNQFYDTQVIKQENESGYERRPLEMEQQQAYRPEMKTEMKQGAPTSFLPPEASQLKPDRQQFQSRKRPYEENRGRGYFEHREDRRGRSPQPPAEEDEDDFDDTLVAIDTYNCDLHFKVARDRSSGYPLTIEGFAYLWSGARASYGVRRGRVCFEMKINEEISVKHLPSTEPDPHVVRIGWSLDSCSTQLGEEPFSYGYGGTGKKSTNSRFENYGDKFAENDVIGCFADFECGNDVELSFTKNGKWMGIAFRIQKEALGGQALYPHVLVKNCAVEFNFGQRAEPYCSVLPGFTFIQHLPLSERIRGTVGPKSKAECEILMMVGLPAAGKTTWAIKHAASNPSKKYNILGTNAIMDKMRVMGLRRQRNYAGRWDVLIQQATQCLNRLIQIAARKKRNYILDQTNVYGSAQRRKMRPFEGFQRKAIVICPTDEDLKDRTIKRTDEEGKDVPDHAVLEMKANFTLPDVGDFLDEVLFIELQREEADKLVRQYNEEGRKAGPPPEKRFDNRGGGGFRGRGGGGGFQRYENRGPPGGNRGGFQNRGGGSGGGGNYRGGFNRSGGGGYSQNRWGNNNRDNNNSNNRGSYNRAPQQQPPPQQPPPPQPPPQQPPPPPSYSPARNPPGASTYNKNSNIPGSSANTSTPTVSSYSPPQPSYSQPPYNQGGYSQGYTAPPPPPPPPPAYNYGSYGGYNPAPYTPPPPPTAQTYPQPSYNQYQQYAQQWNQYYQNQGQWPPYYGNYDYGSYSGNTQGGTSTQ
FLAG-tagged hnRNPUL1 ΔWA (Walker A motif mutant) (Q9BUJ2, form named): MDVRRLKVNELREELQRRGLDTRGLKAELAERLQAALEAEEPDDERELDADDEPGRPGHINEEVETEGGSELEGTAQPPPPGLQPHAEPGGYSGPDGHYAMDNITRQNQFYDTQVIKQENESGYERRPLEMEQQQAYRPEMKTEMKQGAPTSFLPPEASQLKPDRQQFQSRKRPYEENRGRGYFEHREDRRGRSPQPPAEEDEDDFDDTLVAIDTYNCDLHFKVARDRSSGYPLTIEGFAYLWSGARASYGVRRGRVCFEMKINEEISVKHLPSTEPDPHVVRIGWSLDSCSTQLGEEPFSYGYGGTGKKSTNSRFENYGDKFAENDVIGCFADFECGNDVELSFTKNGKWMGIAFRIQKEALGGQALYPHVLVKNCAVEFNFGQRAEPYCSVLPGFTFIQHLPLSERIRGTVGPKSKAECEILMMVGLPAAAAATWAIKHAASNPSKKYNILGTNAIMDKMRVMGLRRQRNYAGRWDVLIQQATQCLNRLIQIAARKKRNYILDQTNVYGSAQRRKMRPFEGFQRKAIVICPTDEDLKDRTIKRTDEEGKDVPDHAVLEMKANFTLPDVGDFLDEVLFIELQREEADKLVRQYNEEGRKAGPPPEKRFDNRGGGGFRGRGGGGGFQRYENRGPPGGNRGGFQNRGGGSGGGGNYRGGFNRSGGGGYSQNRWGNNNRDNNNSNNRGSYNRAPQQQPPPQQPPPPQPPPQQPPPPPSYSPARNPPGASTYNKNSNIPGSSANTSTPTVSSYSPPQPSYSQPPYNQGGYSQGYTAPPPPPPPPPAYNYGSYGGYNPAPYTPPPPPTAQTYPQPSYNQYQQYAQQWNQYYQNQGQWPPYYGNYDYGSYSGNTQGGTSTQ
UniProt Q01844: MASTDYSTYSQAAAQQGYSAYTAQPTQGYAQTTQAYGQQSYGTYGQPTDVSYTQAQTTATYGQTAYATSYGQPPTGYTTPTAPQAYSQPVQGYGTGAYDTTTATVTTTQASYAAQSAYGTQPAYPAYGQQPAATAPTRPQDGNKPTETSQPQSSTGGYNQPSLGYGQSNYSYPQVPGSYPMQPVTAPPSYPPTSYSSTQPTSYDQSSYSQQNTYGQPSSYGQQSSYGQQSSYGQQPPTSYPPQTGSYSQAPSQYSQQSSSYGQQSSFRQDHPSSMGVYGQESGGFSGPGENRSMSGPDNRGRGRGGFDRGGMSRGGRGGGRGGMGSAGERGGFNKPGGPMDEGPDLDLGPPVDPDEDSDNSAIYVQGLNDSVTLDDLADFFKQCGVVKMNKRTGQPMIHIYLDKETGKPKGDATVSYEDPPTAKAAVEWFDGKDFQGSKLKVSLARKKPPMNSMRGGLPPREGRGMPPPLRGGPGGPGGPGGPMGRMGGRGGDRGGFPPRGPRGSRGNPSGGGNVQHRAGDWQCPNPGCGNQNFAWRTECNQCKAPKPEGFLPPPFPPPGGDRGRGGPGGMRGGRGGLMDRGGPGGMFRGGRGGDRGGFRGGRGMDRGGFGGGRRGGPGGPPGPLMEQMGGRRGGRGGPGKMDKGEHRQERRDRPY
UniProt Q5TA45: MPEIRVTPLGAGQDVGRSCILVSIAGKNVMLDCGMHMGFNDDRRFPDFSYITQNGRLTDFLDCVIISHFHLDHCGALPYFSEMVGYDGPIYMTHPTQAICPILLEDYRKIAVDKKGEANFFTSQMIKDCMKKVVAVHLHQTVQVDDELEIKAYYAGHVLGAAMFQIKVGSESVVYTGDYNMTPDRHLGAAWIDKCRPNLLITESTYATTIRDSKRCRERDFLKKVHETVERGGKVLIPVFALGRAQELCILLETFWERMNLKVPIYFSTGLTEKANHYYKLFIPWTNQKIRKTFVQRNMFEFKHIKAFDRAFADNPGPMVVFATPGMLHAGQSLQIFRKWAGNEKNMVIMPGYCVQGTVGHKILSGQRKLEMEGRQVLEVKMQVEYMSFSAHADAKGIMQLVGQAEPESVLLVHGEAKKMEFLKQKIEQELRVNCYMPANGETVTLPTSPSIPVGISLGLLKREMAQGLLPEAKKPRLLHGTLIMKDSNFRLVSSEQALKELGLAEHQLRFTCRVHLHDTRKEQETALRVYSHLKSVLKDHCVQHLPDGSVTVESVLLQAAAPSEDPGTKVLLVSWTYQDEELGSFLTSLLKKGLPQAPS
UniProt P35637: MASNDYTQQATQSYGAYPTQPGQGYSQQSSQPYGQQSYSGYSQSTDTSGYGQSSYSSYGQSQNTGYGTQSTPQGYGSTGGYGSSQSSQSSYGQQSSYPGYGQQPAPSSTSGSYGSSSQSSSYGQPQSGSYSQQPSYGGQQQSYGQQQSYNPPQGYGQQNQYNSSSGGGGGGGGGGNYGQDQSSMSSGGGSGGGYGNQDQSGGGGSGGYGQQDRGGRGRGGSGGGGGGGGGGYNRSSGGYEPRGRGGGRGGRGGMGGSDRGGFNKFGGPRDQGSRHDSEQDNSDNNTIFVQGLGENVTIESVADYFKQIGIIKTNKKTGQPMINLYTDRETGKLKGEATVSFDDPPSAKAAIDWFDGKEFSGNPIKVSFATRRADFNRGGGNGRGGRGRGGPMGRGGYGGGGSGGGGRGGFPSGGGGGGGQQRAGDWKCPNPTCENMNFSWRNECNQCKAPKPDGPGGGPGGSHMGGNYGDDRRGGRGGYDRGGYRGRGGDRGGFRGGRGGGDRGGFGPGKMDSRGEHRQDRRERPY

binding [1]	binding [2]	Substance
binds	binds	EWSR1 (from UniProt Q01844 1-656)
binds	binds	INTS11 (from UniProt Q5TA45 1-600) (enzyme)
binds	binds	FUS (from UniProt P35637 1-526)

Reference: article doi:10.1101/2023.07.22.550030
